Values quoted from earlier work in US20070185065A1, “Combination therapy for coronary artery disease” (priority 2006, published 2007).
At least one structure is not confirmed: it was looked up by name or label, or the drawing left a doubt.

Legend:
[1] = tested on: patients with chronic stable angina; conditions: six weeks therapy, long-acting preparations; metoprolol 200 mg daily, nifedipine 20 mg BID
[2] = tested on: aortic and carotid atherosclerosis; conditions: after 12 months of therapy, magnetic resonance imaging

Row | Compound | increase in mean exercise time to 1-mm ST segment depression [1] [s] | regression of aortic and carotid atherosclerosis [2]
1 | COC(=O)C1=C(C)NC(C)=C(C(=O)OC)C1c1ccccc1[N+](=O)[O-] [nifedipine] | 43 | 
2 | CCC(C)(C)C(=O)O[C@H]1C[C@@H](C)C=C2C=C[C@H](C)[C@H](CC[C@@H]3C[C@@H](O)CC(=O)O3)[C@H]21 [simvastatin] |  | significant regression
